Results are given in words; binding and its absence hold for the method and conditions named. In cells and extracts the contact can be indirect. For some assays here: Binding calls can cover weak binding; strength is not graded here.

For assay [1], the target named is T1, VE-cadherin (bovine (endogenous in BAEC)) (UniProt Q6URK6).
T1 sequence: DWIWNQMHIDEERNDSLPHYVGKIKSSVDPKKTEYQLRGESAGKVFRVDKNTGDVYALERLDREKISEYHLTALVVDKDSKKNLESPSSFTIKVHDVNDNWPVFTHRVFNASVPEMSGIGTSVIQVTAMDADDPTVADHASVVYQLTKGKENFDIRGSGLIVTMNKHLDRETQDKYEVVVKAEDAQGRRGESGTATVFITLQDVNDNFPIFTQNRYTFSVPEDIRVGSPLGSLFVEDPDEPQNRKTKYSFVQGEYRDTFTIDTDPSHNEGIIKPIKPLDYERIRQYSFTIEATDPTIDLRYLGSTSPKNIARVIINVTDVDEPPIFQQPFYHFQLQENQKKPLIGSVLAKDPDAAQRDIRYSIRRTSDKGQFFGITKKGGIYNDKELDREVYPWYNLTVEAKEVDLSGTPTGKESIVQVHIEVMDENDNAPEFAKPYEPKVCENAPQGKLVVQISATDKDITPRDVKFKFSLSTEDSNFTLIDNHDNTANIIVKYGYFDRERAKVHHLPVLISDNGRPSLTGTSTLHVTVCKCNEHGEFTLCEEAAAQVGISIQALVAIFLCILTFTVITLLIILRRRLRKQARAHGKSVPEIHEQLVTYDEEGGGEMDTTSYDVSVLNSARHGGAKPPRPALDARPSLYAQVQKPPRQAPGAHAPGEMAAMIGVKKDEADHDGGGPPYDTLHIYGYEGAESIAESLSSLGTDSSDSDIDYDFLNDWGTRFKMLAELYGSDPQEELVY
Kind of assay: condition: only in cells transduced with Ad-FGFR1DN; co-IP; as a1, but BAEC transduced with Ad-FGFR1DN (FGF signaling suppressed).

The target in assay [2] is T1, VE-cadherin (bovine (endogenous in BAEC)). Put plainly: co-IP; endogenous proteins of BAEC lysates (HEPES lysis buffer pH 7.4, 150 mM NaCl, 1% NP-40, 5 mM EDTA, 300 µM pervanadate); antibody and Dynabeads Protein G, immunoblot; cells non-transduced or transduced with Ad-GFP (baseline), or with Ad-FGFR1DN and Ad-SHP2 (rescue).
Assay [3] deals with SHP2 (bovine (endogenous in BAEC)). Put plainly: condition: only in cells transduced with Ad-FGFR1DN; co-IP; as a1, but BAEC transduced with Ad-FGFR1DN (FGF signaling suppressed).
For assay [4] the target is unchanged. Put plainly: co-IP; endogenous proteins of BAEC lysates (HEPES lysis buffer pH 7.4, 150 mM NaCl, 1% NP-40, 5 mM EDTA, 300 µM pervanadate); antibody and Dynabeads Protein G, immunoblot; cells non-transduced or transduced with Ad-GFP (baseline), or with Ad-FGFR1DN and Ad-SHP2 (rescue).

As for “SHP2 (bovine (endogenous in BAEC)) (enzyme)”, the binding result was “no binding” in assay [1] and “binds” in assay [2].
As for “p120-catenin (bovine (endogenous in BAEC))”, in assay [2], the binding result is listed as “binds”.

B1: VE-cadherin (protein, UniProt Q6URK6 46-783)
chain: T1 sequence
With B1, the binding entry in assay [3] is given as “no binding”; in assay [4], “binds”.

For the origin of these results see paper PMC3358251.
